Library screening results

Amino acid sequences for entries named in this document (tags omitted).
UniProt E9BF75, entry or part of it: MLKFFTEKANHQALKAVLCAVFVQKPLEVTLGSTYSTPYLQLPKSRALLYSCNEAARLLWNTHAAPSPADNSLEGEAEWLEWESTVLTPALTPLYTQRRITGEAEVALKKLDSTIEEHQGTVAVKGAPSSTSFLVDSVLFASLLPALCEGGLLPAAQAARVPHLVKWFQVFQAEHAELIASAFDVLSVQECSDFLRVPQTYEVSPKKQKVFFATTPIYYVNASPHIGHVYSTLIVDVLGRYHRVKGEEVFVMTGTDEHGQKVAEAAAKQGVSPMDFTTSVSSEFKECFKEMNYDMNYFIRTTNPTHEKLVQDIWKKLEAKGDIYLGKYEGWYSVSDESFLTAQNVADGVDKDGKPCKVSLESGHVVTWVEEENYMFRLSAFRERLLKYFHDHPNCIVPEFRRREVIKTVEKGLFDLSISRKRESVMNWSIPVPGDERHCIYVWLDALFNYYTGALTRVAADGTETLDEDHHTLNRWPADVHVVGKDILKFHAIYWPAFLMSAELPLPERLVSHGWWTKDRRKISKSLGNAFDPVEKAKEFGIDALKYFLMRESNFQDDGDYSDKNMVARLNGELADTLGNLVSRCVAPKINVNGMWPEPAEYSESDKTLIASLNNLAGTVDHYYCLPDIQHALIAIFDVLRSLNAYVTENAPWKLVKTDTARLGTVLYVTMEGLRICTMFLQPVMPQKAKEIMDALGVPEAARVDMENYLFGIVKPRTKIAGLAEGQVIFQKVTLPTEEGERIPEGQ

Source: ChEMBL document CHEMBL3988442, “University of Dundee, Small-Polar-MMV Screening Library” (2021).

Results are percentages, as filed. The record does not define 0% and 100%; most values in the screen are far below 50% and negative numbers occur (in some assays of this library far below -100). Compounds were drawn at random from those tested, without regard to their results. A dash means the value is not listed here; it may have been measured.

LdMetRS: 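Primary screen of methionyl-tRNA synthetase; the read-out is not stated. Target: Methionyl-tRNA synthetase (putative), Leishmania donovani (UniProt E9BF75). The test concentration is not given. The values are filed as inhibition. About 68,000 compounds were tested under these conditions; 0.035% (about 24) showed 50% or more at least once.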
Mtb heat-shock: 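Assay on Mycobacterium tuberculosis, filed only as a heat shock assay from Cornell; the read-out is not stated. The concentration is filed as 10 mM, unlikely as a test dose, so the dose is not known. The record gives no direction; compounds that gave an IC50 in retests scored well above the rest, so higher reads as stronger inhibition. About 69,000 compounds were tested under these conditions; 1.4% (about 930) showed 50% or more at least once.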

| compound | LdMetRS | Mtb heat-shock |
|---|---|---|
| `Cc1ccc(CNC(=O)CN2C=Nc3ccccc3S2(=O)=O)s1` | 12.6 | -33.37 |
| `[H][C@]12CCN(C(=O)CN(C)C)C[C@@]1([H])OCCN(Cc1csc(C)n1)C2` | - | -23.08 |
| `CCOCc1nn(C)c2c1CN(Cc1cccs1)CC2` | 11.95 | - |
| `COc1ccccc1OCC(=O)NS(=O)(=O)c1ccccc1F` | 10.51 | 5.167 |
| `NC(=O)c1ccc(N2CCCCC2)c(NC(=O)c2cc(Br)ccc2F)c1` | 9.449 | -3.698 |
| `CO[C@H]1CNC[C@@H]1NC(=O)c1cc(C)nc2ccc(C)cc12` | 12.63 | -22.41 |
| `O=C(c1ncoc1C1CC1)N1CCN(CCOc2ccccc2)CC1` | 12.27 | -36.52 |
| `CCC(C)(CC(=O)OC)NCc1c(C)noc1C` (stereo unspecified) | 2.719 | -148.8 |
| `CCN1CCC(Cn2ccc3c(OC)c(OC)ccc3c2=O)C1` (stereo unspecified) | - | -2.962 |
| `Clc1ccc(C2(CNC3=NCCN3)CCCCC2)cc1` | 3.971 | - |
| `FC(F)(F)Sc1ccccc1NCc1nc(C2CC2)no1` | 7.216 | 33.33 |
| `CC(Cn1cccn1)n1cnc2ccc(F)cc2c1=O` (stereo unspecified) | 7.161 | 13.13 |
| `OC1CCN(c2ccc(CNc3nc4ccccc4s3)cc2F)CC1` | 13.53 | -22.78 |
| `CCCc1ccc(C(=O)N2CCc3c(nc(N(C)C)[nH]c3=O)C2)cc1` | 14.1 | -7.538 |
| `CN(C(=O)C1(C#N)CCCCC1)c1nccs1` | 7.311 | -19.47 |
| `Cc1n[nH]c(=O)c(C(=O)N2CCN(CCc3cccs3)CC2)c1C` | 18.2 | 1.644 |
| `Cc1nc(CO[C@H]2CN(C(=O)c3cccn3C)[C@@H]3COC[C@H]23)cs1` | 3.361 | - |
| `c1ccc(OC[C@]23COC[C@H]2CN(C2CCOCC2)C3)nc1` | 9.589 | - |
| `COCC1Cn2nnc(-c3cnn(C)c3)c2CN1Cc1ccco1` (stereo unspecified) | 19.05 | - |
| `Cn1ncc(C2CC(=O)NCc3nc4sccn4c32)c1C1CC1` (stereo unspecified) | 8.04 | 8.323 |
| `CCN(C)c1ncnc2c1CCN(c1ccc(C)nn1)CC2` | 14.03 | 19.76 |
| `CC(C)c1noc(C2CCCN2S(=O)(=O)Cc2ccc(F)cc2)n1` (stereo unspecified) | 13.92 | -23.31 |
| `CN(C)CCN1CCOCC2(CCCN(C(=O)c3cccn3C)C2)C1.O=C(O)C(F)(F)F.O=C(O)C(F)(F)F` (stereo unspecified) | - | -9.989 |
| `O=C(Nc1c(F)cccc1F)N1CC(c2nc(C3CC3)no2)C1` | 7.914 | 5.975 |
| `Fc1cccnc1O[C@H]1CN(Cc2ccoc2)[C@@H]2CCCO[C@H]12` | 5.476 | - |
| `CCn1c(C2CCN(C(=O)CCc3cc(Cl)no3)CC2)nn(C)c1=O` | 21.92 | 13.84 |
| `CC(C)(C)n1ccc(C(=O)N2CCCC(c3ccc(C(=O)O)cc3)C2)c1` (stereo unspecified) | 19.79 | 6.287 |
| `Cc1ccc(CN2CCn3c(CNS(C)(=O)=O)nnc3C2)s1` | 7.96 | -24.84 |
| `O=C(c1ccoc1)N1CCc2ncc(Cn3cccn3)n2CC1` | -5.205 | -10.71 |
| `Cc1noc(C)c1CN1CCc2ncnc(-c3ccoc3)c2CC1.O=C(O)C(F)(F)F` | - | -4.078 |
| `CC(C)N1CCC2(CC1)CC(CC(N)=O)c1ccc(F)cc12.O=C(O)C(F)(F)F` (stereo unspecified) | - | -27.46 |
| `O=C(CN1CCC(c2cccc(F)c2)C1)NCC(F)(F)F` (stereo unspecified) | 12.24 | 12.72 |
| `Cc1n[nH]c(C)c1CCN(C)c1ccc(-c2nc(C3CC3)no2)cn1` | 11.85 | 6.091 |
| `CCS(=O)(=O)N1CCc2c(cnc(-c3cccnc3)c2C(=O)O)C1` | 5.882 | -27.88 |
| `Cc1nnc(N2CCCC3(CN(Cc4nccn4C)CCO3)C2)o1` (stereo unspecified) | 20 | -38.66 |
| `Cc1cnn(CC2CN(CC(=O)Nc3ccncc3)CCO2)c1` (stereo unspecified) | 24.36 | -4.261 |
| `CC(=O)N1CCCCC[C@@H]2[C@@H]1[C@H](c1cccc(F)c1)CN2CCC(N)=O` | 11.49 | - |
| `CCc1ncc2c(n1)CN(Cc1cccc3c1OCCO3)CC2` | 15.38 | 3.364 |
| `CCOc1ccccc1-c1noc(CN2CCOC(CN(C)C)C2)n1` (stereo unspecified) | 5.155 | 0.3813 |
| `Cl.c1ccc(CCNc2cccc(C3CCCNC3)n2)cc1` (stereo unspecified) | - | -24.38 |
| `O=c1[nH]ncc(NCCOc2cccc(Br)c2)c1Cl` | 10.59 | 9.559 |
| `Cc1nnc(N2CCOC(Cn3cccn3)C2)c(C#N)c1C` (stereo unspecified) | 12.24 | -1.414 |
| `CC(C(=O)NC1CC1)S(=O)(=O)Cc1noc(C(C)(C)C)n1` (stereo unspecified) | 11.96 | 14.89 |
| `N#Cc1ccc(N2CCC(OC3CCOCC3)CC2)cc1Cl` | 12.03 | 17.08 |
| `Cc1ccccc1OCCCC(=O)NCc1ccnc(O)c1` | 9.946 | -2.237 |
| `O=C(NC1CCCN(c2ncccn2)C1)c1ccoc1` (stereo unspecified) | 9.859 | -14.57 |
| `Cc1ccc2oc(=O)n(CCC(=O)N3CCN(C)C(=O)C3)c2c1` | 14.58 | -1.974 |
| `COCCN1CCOCC12CCN(C(=O)c1cccnc1)CC2.O=C(O)C(F)(F)F` | - | -43.19 |
| `Cc1ccc(OCC(C)NC(=O)CN(C)c2ccc(C#N)cn2)cc1` (stereo unspecified) | 17.75 | 20.62 |
| `CC(C)N1CCC2(C=C(C(=O)NC3CC3)c3ccccc32)CC1` | -1.681 | - |
| `O=C(c1ncn2c1CNS(=O)(=O)c1ccccc1-2)N1CCCCC1` | 17.07 | 13.58 |
| `CC(NC(=O)CCc1cccs1)c1nnc2n1CCCCC2` (stereo unspecified) | 5.556 | -25.79 |
| `CCN(CC)C(CNCc1ccc(OC)c(F)c1)c1ccco1` (stereo unspecified) | -0.3472 | 1.019 |
| `CCN(C)c1ncnc2c1CCN(Cc1ccc(OC)cc1)CC2.O=C(O)C(F)(F)F.O=C(O)C(F)(F)F` | - | -9.791 |
| `O=S(=O)(NCc1ccccc1)Nc1ccc(-n2cncn2)cc1` | 5.115 | 23.94 |
| `O=C1CCCN1c1cccc(N2CCC(NCCc3cscn3)CC2)c1` | 7.463 | 2.407 |
| `CCCc1noc(CCC(=O)N2CCCC(c3ccn[nH]3)C2)n1` (stereo unspecified) | 14.52 | -19.43 |
| `CC(=O)N1CCCCC1c1cc(CO)[nH]n1` (stereo unspecified) | 8.562 | -2.224 |
| `CCOc1cc(C(=O)n2cccn2)cc(OCC)c1OCC` | 5.036 | 2.254 |
| `Cc1noc(C)c1CN(C)Cc1csc(-c2ccc(C(C)C)cc2)n1` | -2.446 | 2.15 |
| `CCC1COCCN1C(=O)NCc1cccc(-c2cnn(C)c2)c1` (stereo unspecified) | 9.971 | -4.285 |
| `O=C(O)C(F)(F)F.[H][C@@]12CCN(CCc3ccccc3)C[C@]1([H])O[C@@H](C(=O)NC)C2` | - | 1.265 |
| `O=C(CN1CCS(=O)(=O)CC1)NC1CCCOc2ccccc21` (stereo unspecified) | 10.76 | 13.36 |
| `Cc1nc(CN(C)C2CCN(CC3CCOCC3)C2)no1` (stereo unspecified) | 6.983 | -0.2948 |
| `O=C(O)c1ccccc1-c1ccc(CN2CC(c3ccncn3)C2)o1` | 29.07 | 0.7611 |
| `Cc1ccc(C(=O)N2CCC3(CC2)COC(COc2ccccn2)C3)o1.O=C(O)C(F)(F)F` (stereo unspecified) | - | 13.1 |
| `COc1cccc(CN2CCCC(Cn3nc(C)nc3C)C2)c1` (stereo unspecified) | 29.44 | -8.688 |
| `CCCN(Cc1nccn1C)C(=O)c1cc(C)nc(C)n1` | 15.08 | 10.41 |
| `Cc1cnccc1-c1cnn(CCNC(=O)c2cccnc2)c1C1CC1.Cl` | - | -20.8 |
| `Cc1nc(C)c2c(n1)CCN(Cc1ccsc1)CC2` | 11.34 | -2.344 |
| `COCCC1CN(c2nc(-c3ccccc3)nc3c2CCNC3)CCO1` (stereo unspecified) | 26.95 | 2.559 |
| `O=C(CC1CC1)N1CCc2ncc(Cn3cncn3)n2CC1` | 14.43 | - |
| `CC(=O)N1CCN(c2cnnc(N3CCCC3)c2)CC1` | 7.645 | 5.205 |
| `Cc1cccc(C(C)(C)CNC(=O)CN(C)c2cnccn2)c1` | 5.072 | -7.092 |
| `O=C(O)C(F)(F)F.O=C(O)C(F)(F)F.[H][C@@]12OCCN(Cc3ccc(C)o3)[C@@]1([H])CC[C@H]2OCc1cccnc1` | - | 17.99 |
| `O=S(=O)(Cc1nc(C2CC2)no1)c1cc(F)ccc1F` | 11.25 | 12.65 |
| `O=C(c1ccc2c(c1)CCC2)N1CC[C@H](O)[C@]2(CCCO2)C1` | 10.12 | -1.07 |

For reference, 7 entries once more:

- NC(=O)c1ccc(N2CCCCC2)c(NC(=O)c2cc(Br)ccc2F)c1 | LdMetRS: 9.449%; Mtb heat-shock: -3.698%
- O=C(O)C(F)(F)F.[H][C@@]12CCN(CCc3ccccc3)C[C@]1([H])O[C@@H](C(=O)NC)C2 | Mtb heat-shock: 1.265%
- Fc1cccnc1O[C@H]1CN(Cc2ccoc2)[C@@H]2CCCO[C@H]12 | LdMetRS: 5.476%
- Cn1ncc(C2CC(=O)NCc3nc4sccn4c32)c1C1CC1 (stereo unspecified) | LdMetRS: 8.04%; Mtb heat-shock: 8.323%
- Cl.c1ccc(CCNc2cccc(C3CCCNC3)n2)cc1 (stereo unspecified) | Mtb heat-shock: -24.38%
- O=S(=O)(NCc1ccccc1)Nc1ccc(-n2cncn2)cc1 | LdMetRS: 5.115%; Mtb heat-shock: 23.94%
- CC(NC(=O)CCc1cccs1)c1nnc2n1CCCCC2 (stereo unspecified) | LdMetRS: 5.556%; Mtb heat-shock: -25.79%